The text below walks through data of patent publication US10179355B2, “Bioremediation enhancing agents and methods of use” (JRW BIOREMEDIATION, LLC, priority 2007, dated 2019).

This data set relates to dechlorinating bacteria known to convert PCE to ethene. Kind of data set: Set D: Efficiency by COD Analysis. It is filed as cell-based, Dehalococcoides and Dehalobacter spp. An excerpt: Efficiency may be defined as the percent of electron donor utilized for dechlorination, and may be calculated by dividing the pmoles of Chloride ion generated by the pmoles of electron donor consumed as measured by either Volatile Fatty Acid (VFA) analysis (Sets B, C, and G) or Chemical Oxygen Demand (COD) analysis (Set D and E). The Relative Efficiency of the electron donor utilization may be defined as the Efficiency of the Electron Donor divided by the Efficiency of the Lactate Control.
The COD analysis calculates the utilization of electron donor by measuring the starting COD and the final COD taking the difference and converting mg/L to pmoles of electrons. The pmoles of electrons used for dechlorination was determined from the calculated Chloride produced leading to an Efficiency and Relative Efficiency of electron donor utilization as compared to lactate.

In the case of `CC(O)C(=O)[O-].[Na+]` (stereo not drawn) [Lactate Control, sodium lactate], the “Final COD” value is given as 777 mg/L, the “ΔCOD μmoles e^-” value was determined as 2283 μmoles e^- and the “μmoles e^− dechlor.” value is given as 131 μmoles e^−.
